# Assay results from PubChem BioAssay AID504834 (National Center for Advancing Translational Sciences (NCATS), 2011).
# Out of some 320,000 compounds screened, about 22,000 (6.9%) were called active. This list was built around the results that the source calls inconclusive (neither active nor inactive); the mix of calls is not that of the screen. Calls follow the shape of the dose curve; as a rule, active = well fitted inhibition curve with a large enough effect; inconclusive = small, poorly fitted or top-dose-only effect, or another doubt; inactive = no such curve, though single readings can be large or run the other way. Potencies beside an inconclusive call are fits to weak or partial responses and may not hold up.
# Assay: Primary qHTS for delayed death inhibitors of the malarial parasite plastid, 96 hour incubation
# Details: P. falciparum luciferase reporter growth; series mostly up to 28.7 µM
# In short: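 P. falciparum expressing integrated firefly luciferase grown in erythrocytes (2% hematocrit, 0.05% parasitemia final) with compounds for 96 hours at 37 C, 5% CO2. Growth inhibition read as loss of luminescence after adding luciferase detection reagent.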
# Potency is read from the fitted curve at half-maximal effect.
row,Structure (SMILES),Potency
1,Cc1cccc(N2CCN(C(=O)NC3CCCCC3)CC2C)c1 (stereo unspecified),"inconclusive: 18.5 µM [inhibitor, single point]"
2,CN(CC(=O)N1CCOCC1)S(=O)(=O)c1ccc2ccccc2c1,"inconclusive: 11.7 µM [inhibitor, single point]"
3,COCCn1c(SCc2cc(C(C)=O)ccc2OC)nc2cc(Cl)ccc2c1=O,"inconclusive: 7.38 µM [inhibitor, partial curve, poor fit]"
4,CCN(C(=O)COC(=O)c1cc([N+](=O)[O-])ccc1N1CCOCC1)c1ccccc1,"inconclusive: 8.28 µM [inhibitor, partial curve, poor fit]"
5,CCO[C@H]1OC(C(=O)NC2CC2)=C[C@@H](C2CCCCC2)[C@@H]1CCCO,"inconclusive: 10.4 µM [inhibitor, single point]"
6,Cc1cccc(C(=O)Nc2nnc(Cc3c[nH]c4ccccc34)s2)c1,"inconclusive: 16.5 µM [inhibitor, partial curve, poor fit]"
7,O=C(OCc1ccccc1C(F)(F)F)c1cc([N+](=O)[O-])ccc1N1CCOCC1,"inconclusive: 18.5 µM [inhibitor, single point]"
8,C/C=C\C=C/C(=O)Nc1cccc(C2=NOC3(C2)C[C@@H](C(N)=O)N(C(=O)CCCCC)C3)c1 (stereo partly specified),"inconclusive: 18.5 µM [inhibitor, single point]"
9,O=C(Nc1ccc(Cl)cc1C(F)(F)F)c1ccccc1,"inconclusive: 11.7 µM [inhibitor, single point]"
10,COc1ccc(N2C(=O)CSC2c2ccncc2)cc1 (stereo unspecified),"inconclusive: 0.0522 µM [inhibitor, full curve, poor fit]"
11,Cc1ccc(C(OCC(O)CN2CCCCC2)c2ccccc2)cc1 (stereo unspecified),"inconclusive: 11.7 µM [inhibitor, single point]"
12,CCc1ccc(NC(=O)COC(=O)c2cccs2)cc1,inactive
13,CC(=O)c1ccc(NC(=O)C(C)Sc2ccccn2)cc1 (stereo unspecified),"inconclusive: 5.22 µM [inhibitor, partial curve, poor fit]"
14,N=c1c(C(=O)NC2CCCC2)cc2c(=O)n3ccccc3nc2n1CC1CCCO1 (stereo unspecified),"inconclusive: 2.94 µM [inhibitor, full curve, poor fit]"
15,CC(C)C(NS(=O)(=O)c1ccccc1)C(=O)OCc1cc([N+](=O)[O-])cc2c1OCOC2 (stereo unspecified),inactive
16,COc1ccc2cc(C(=O)NCCc3ccccc3)[nH]c2c1,inactive
17,Cc1ccccc1NC(=O)Nc1ccccc1N1CCCCC1,"inconclusive: 11.7 µM [inhibitor, partial curve, poor fit]"
18,CCn1ccnc1CNCc1cn(-c2cc(C)ccc2C)nc1-c1ccccc1,"inconclusive: 5.86 µM [inhibitor, partial curve, poor fit]"
19,Cc1ccc2c(c1C)OC(=O)CC2c1ccccc1 (stereo unspecified),"inconclusive: 14.7 µM [inhibitor, single point]"
20,CCn1cc(C(=O)O)c(=O)c2cnc(N3CCN(C(=S)NC(=O)c4ccccc4)CC3)nc21,"inconclusive: 0.522 µM [inhibitor, partial curve]"
21,CC(OC(=O)C1CCN(c2ccc(C(F)(F)F)cn2)CC1)C(=O)c1ccccc1 (stereo unspecified),inactive
22,NC1CCc2cc(O)c(O)cc2C1 (stereo unspecified),inactive

row,Structure (SMILES),Potency
1,CCOc1ccc(C2CC(c3cccc(C)c3)n3ncnc3N2)cc1 (stereo unspecified),"inconclusive: 9.28 µM [inhibitor, partial curve, poor fit]"
2,COC(=O)c1cnn2c(C)c(Cc3cccc(F)c3)c(C)nc12,"inconclusive: 16.5 µM [inhibitor, single point]"
3,O=C(CCCN1C(=O)/C(=C\c2ccccc2)SC1=S)Nc1cccc(C(=O)O)c1,"inconclusive: 18.5 µM [inhibitor, single point]"
4,Clc1ccc(-c2csc(-c3cccnc3)n2)s1,"inconclusive: 18.5 µM [inhibitor, single point]"
5,CC(N)Cc1ccccc1Sc1ccc(O)cc1 (stereo unspecified),"inconclusive: 18.5 µM [inhibitor, single point]"
6,COc1ccc(-c2nc(CS(=O)CC(=O)NC3CCCCC3)c(C)o2)cc1OC (stereo unspecified),"inconclusive: 11.7 µM [inhibitor, single point]"
7,CCOc1ccc(NC(=O)[C@H](Cc2ccccc2)NC(=O)C2CCNCC2)cc1,"inconclusive: 13.1 µM [inhibitor, single point]"
8,CCOC(=O)c1ccc(NC(=O)CCc2ccc(C)o2)cc1,"inconclusive: 13.1 µM [inhibitor, single point]"
9,COc1ccccc1N1CCN(C2CCCN(C(=O)CN3CCCC3=O)C2)CC1 (stereo unspecified),"inconclusive: 18.5 µM [inhibitor, single point]"
10,COc1ccc([C@H]2CC(=O)C=C(c3ccc4c(c3)sc3ccccc34)C2)cc1,"inconclusive: 18.5 µM [inhibitor, single point]"
11,CC(=O)Oc1c(Cl)cc(Cl)cc1/C=C/c1ccc2ccccc2n1,inactive
12,Cc1cc(C)c2c(c1)cc(C)c1nnc(SCC(=O)Nc3ccc(S(=O)(=O)N4CCCCC4)cc3)n12,"inconclusive: 20.8 µM [inhibitor, single point]"
13,CCn1c(N)[n+](CC(=O)Nc2ccc(SC(F)F)cc2)c2ccccc21,active: 2.94 µM
14,Cc1cc2oc(=O)cc(CN3CCCCC3C)c2cc1C (stereo unspecified),active: 9.28 µM
15,CCOc1ccc(CONS(=O)(=O)c2ccc(NC(C)=O)cc2)cc1Cl,"inconclusive: 18.5 µM [inhibitor, single point]"
16,NC(=O)CC(NC(=O)Cc1cccc2ccccc12)c1ccc(N2CCN(c3ccc(F)cc3)CC2)c([N+](=O)[O-])c1 (stereo unspecified),"inconclusive: 6.57 µM [inhibitor, partial curve, poor fit]"
17,Fc1ccccc1Cc1noc(CN2CCN(Cc3ccc4c(c3)OCO4)CC2)n1,"inconclusive: 13.1 µM [inhibitor, single point]"
18,CCOC(=O)c1cn(Cc2ccccc2)nn1,"inconclusive: 0.0928 µM [inhibitor, partial curve, poor fit]"
19,CCCCNC(=S)N/N=C1\CCCCc2ccccc21,active: 9.28 µM
20,O=c1oc2ccccc2c(O)c1C(c1ccccn1)c1c(O)c2ccccc2oc1=O,"inconclusive: 2.94 µM [inhibitor, full curve, poor fit]"
21,CCN(CC)S(=O)(=O)c1ccc(N/N=C/c2ccc(OC)c(OC)c2OC)nc1,"inconclusive: 18.5 µM [inhibitor, partial curve, poor fit]"
22,COc1ccccc1/C=C/C(=O)Nc1cccc(C(C)=O)c1,inactive

# Laid out differently: results already given.
row | Structure (SMILES) | Potency
20 | O=c1oc2ccccc2c(O)c1C(c1ccccn1)c1c(O)c2ccccc2oc1=O | inconclusive: 2.94 µM [inhibitor, full curve, poor fit]
21 | CCN(CC)S(=O)(=O)c1ccc(N/N=C/c2ccc(OC)c(OC)c2OC)nc1 | inconclusive: 18.5 µM [inhibitor, partial curve, poor fit]

# Additional compounds follow:

row,Structure (SMILES),Potency
1,CCc1[nH]nc(C(=O)N2CCCC(C(=O)c3cccc(OC(C)C)c3)C2)c1C (stereo unspecified),"inconclusive: 11.7 µM [inhibitor, single point]"
2,CC1CCN(CCOc2ccc(OCc3ccccc3)cc2)CC1,inactive
3,COc1ccccc1NC(=O)N(C1CCCC1)C1CCN(C(C)=O)CC1,"inconclusive: 10.4 µM [inhibitor, single point]"
4,C#CCOCCOCCOCCNc1nc(N2CCN(C(=O)CCCCCCCCCCNC(=O)[C@@H](CCC(=O)O)n3cc(CCCCCN)nn3)CC2)nc(N2CCN(C(=O)CCCCCCCCCCNC(=O)[C@H]([C@@H](C)CC)n3cc(CCCCCN)nn3)CC2)n1,active: 1.47 µM
5,COc1ccc(-c2[nH]ncc2CN(CCO)CC23CC4CC(CC(C4)C2)C3)c(OC)c1,"inconclusive: 18.5 µM [inhibitor, partial curve, poor fit]"
6,COCCn1c(NC(=S)NC(=O)C23CC4CC(CC(C4)C2)C3)cc(=O)[nH]c1=O,active: 14.7 µM
7,C=CCN1CC2(c3ccccc3)CN(CC=C)CC(c3ccccc3)(C1)C2=O,"inconclusive: 3.29 µM [inhibitor, full curve]"
8,O=[N+]([O-])c1ccc(-c2nc(NCC3CCCO3)c3ccccc3n2)cc1 (stereo unspecified),"inconclusive: 18.5 µM [inhibitor, single point]"
9,Cc1cc(OCCCCCNCCO)cc(C)c1Cl,active: 13.1 µM
10,CC(C)C[C@H](NC(=O)N1CCn2c1nc1ccccc12)C(=O)N[C@@H](Cc1ccccc1)C(=O)O,inactive
11,O=C(NC1CCCN(Cc2ccc(Cl)cc2)C1)c1c(F)ccc(F)c1F (stereo unspecified),active: 4.65 µM
12,Cc1ccc2[nH]c3c(c2c1)CCC3=O,inactive
13,CS(=O)CCC(NS(=O)(=O)c1ccccc1)C(=O)O (stereo unspecified),active: 9.28 µM
14,CC1CCc2c(sc3nc(CSc4ncn[nH]4)[nH]c(=O)c23)C1 (stereo unspecified),inactive
15,CC(NC1c2ccccc2-c2ccccc21)c1ccccc1 (stereo unspecified),"inconclusive: 10.4 µM [inhibitor, single point]"
16,CSc1ccc(CN2CCC(n3nccc3NC(=O)c3ccccc3C)CC2)cc1,inactive
17,COC(=O)C1=C(Nc2ccc(C)cc2)C=C(C)C(C(=O)OC)C1c1ccc(F)cc1 (stereo unspecified),active: 11.7 µM
18,O=C(CN(c1ccc(F)cc1)S(=O)(=O)c1ccc2c(c1)OCCO2)Nc1ccccc1,"inconclusive: 13.1 µM [inhibitor, single point]"
19,COc1cc(/C=N/NC(=O)C2CCN(CC(O)COCc3ccccc3)CC2)cc(OC)c1OC (stereo unspecified),"inconclusive: 4.65 µM [inhibitor, single point]"
20,CC(C(=O)NCc1ccc(F)cc1)n1ccc2cc(S(=O)(=O)N3CCCC3)ccc21 (stereo unspecified),"inconclusive: 11.7 µM [inhibitor, single point]"
21,CCOC(=O)C1C2C=CC3(CN(c4ccc(Cl)c(F)c4)C(=O)C13)O2 (stereo unspecified),"inconclusive: 11.7 µM [inhibitor, single point]"
22,CC(=O)Nc1ccc(Nc2c([N+](=O)[O-])cc(S(C)(=O)=O)cc2[N+](=O)[O-])cc1,"inconclusive: 6.57 µM [inhibitor, partial curve, poor fit]"
